Source: patent US20060240023A1
These are yes or no findings as the source states them, for the method shown. Binding seen in cells or lysates may run through a third protein. Some entries that bind do so weakly or less than the wild type.

Amino acid sequences for entries named in this document (tags omitted). A change or cut given only in a name is not applied to a line headed by its entry.
UniProt Q99683: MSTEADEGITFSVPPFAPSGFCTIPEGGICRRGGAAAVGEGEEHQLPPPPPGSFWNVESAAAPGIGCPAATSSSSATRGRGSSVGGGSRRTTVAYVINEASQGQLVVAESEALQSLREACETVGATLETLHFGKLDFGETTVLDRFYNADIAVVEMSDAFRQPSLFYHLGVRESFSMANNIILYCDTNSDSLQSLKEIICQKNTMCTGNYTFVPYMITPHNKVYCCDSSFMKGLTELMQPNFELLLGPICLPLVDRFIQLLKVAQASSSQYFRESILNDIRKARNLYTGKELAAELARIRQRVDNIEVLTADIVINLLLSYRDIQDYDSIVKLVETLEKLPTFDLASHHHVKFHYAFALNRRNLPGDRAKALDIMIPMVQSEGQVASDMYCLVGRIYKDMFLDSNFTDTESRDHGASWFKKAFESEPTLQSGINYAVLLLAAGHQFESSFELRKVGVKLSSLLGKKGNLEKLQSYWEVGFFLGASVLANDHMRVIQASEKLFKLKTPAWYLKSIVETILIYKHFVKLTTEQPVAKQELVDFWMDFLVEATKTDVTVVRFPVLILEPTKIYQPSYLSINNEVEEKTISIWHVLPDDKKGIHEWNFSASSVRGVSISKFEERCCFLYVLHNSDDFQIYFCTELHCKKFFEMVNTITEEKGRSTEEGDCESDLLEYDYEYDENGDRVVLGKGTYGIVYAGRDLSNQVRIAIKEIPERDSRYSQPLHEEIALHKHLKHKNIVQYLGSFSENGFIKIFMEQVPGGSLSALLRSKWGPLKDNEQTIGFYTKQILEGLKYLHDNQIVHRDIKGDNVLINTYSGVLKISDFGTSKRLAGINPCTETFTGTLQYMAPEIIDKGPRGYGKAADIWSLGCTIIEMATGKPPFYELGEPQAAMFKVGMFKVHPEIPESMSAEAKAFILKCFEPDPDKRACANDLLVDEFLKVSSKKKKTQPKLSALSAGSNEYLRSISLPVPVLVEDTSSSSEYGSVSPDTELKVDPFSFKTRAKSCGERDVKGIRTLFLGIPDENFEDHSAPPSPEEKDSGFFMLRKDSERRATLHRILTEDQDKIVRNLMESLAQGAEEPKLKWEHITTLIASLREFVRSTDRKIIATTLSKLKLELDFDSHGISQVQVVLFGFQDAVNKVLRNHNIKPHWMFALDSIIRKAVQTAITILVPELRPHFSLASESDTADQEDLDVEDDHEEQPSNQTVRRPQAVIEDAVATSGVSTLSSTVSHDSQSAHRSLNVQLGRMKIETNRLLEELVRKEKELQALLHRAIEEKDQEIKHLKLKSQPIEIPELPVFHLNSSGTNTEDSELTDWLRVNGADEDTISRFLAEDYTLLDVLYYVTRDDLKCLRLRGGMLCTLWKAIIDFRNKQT
UniProt Q9Y605: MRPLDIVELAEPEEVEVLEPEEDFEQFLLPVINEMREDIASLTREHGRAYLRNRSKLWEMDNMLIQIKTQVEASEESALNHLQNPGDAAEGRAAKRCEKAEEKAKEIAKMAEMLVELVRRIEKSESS

What was measured:
Flag-ASK1 = Flag-ASK1 (UniProt Q99683); test: co-immunoprecipitation from HEK293 lysate, anti-Flag IP and anti-GFP immunoblot; binding said to be enhanced by H2O2 treatment
Myc-ASK1 = Myc-ASK1 (UniProt Q99683); test: co-immunoprecipitation from HEK293 lysate, anti-Flag IP and anti-Myc immunoblot; binding said to be enhanced by H2O2 treatment

Row | binding (Flag-ASK1) | binding (Myc-ASK1) | Substance
1 | binds |  | CFP-ABP1 (from UniProt Q9Y605 1-127)
2 |  | binds | Flag-ABP1 (from UniProt Q9Y605 1-127)
